Measurements taken from US10391095B2, “DNA-PK inhibitors” (Vertex Pharmaceuticals Incorporated, priority 2012, dated 2019).
Some results were stated once for a whole list of compounds, not compound by compound.

Amino acid sequences for entries named in this document (tags omitted).
UniProt P78527, whole entry: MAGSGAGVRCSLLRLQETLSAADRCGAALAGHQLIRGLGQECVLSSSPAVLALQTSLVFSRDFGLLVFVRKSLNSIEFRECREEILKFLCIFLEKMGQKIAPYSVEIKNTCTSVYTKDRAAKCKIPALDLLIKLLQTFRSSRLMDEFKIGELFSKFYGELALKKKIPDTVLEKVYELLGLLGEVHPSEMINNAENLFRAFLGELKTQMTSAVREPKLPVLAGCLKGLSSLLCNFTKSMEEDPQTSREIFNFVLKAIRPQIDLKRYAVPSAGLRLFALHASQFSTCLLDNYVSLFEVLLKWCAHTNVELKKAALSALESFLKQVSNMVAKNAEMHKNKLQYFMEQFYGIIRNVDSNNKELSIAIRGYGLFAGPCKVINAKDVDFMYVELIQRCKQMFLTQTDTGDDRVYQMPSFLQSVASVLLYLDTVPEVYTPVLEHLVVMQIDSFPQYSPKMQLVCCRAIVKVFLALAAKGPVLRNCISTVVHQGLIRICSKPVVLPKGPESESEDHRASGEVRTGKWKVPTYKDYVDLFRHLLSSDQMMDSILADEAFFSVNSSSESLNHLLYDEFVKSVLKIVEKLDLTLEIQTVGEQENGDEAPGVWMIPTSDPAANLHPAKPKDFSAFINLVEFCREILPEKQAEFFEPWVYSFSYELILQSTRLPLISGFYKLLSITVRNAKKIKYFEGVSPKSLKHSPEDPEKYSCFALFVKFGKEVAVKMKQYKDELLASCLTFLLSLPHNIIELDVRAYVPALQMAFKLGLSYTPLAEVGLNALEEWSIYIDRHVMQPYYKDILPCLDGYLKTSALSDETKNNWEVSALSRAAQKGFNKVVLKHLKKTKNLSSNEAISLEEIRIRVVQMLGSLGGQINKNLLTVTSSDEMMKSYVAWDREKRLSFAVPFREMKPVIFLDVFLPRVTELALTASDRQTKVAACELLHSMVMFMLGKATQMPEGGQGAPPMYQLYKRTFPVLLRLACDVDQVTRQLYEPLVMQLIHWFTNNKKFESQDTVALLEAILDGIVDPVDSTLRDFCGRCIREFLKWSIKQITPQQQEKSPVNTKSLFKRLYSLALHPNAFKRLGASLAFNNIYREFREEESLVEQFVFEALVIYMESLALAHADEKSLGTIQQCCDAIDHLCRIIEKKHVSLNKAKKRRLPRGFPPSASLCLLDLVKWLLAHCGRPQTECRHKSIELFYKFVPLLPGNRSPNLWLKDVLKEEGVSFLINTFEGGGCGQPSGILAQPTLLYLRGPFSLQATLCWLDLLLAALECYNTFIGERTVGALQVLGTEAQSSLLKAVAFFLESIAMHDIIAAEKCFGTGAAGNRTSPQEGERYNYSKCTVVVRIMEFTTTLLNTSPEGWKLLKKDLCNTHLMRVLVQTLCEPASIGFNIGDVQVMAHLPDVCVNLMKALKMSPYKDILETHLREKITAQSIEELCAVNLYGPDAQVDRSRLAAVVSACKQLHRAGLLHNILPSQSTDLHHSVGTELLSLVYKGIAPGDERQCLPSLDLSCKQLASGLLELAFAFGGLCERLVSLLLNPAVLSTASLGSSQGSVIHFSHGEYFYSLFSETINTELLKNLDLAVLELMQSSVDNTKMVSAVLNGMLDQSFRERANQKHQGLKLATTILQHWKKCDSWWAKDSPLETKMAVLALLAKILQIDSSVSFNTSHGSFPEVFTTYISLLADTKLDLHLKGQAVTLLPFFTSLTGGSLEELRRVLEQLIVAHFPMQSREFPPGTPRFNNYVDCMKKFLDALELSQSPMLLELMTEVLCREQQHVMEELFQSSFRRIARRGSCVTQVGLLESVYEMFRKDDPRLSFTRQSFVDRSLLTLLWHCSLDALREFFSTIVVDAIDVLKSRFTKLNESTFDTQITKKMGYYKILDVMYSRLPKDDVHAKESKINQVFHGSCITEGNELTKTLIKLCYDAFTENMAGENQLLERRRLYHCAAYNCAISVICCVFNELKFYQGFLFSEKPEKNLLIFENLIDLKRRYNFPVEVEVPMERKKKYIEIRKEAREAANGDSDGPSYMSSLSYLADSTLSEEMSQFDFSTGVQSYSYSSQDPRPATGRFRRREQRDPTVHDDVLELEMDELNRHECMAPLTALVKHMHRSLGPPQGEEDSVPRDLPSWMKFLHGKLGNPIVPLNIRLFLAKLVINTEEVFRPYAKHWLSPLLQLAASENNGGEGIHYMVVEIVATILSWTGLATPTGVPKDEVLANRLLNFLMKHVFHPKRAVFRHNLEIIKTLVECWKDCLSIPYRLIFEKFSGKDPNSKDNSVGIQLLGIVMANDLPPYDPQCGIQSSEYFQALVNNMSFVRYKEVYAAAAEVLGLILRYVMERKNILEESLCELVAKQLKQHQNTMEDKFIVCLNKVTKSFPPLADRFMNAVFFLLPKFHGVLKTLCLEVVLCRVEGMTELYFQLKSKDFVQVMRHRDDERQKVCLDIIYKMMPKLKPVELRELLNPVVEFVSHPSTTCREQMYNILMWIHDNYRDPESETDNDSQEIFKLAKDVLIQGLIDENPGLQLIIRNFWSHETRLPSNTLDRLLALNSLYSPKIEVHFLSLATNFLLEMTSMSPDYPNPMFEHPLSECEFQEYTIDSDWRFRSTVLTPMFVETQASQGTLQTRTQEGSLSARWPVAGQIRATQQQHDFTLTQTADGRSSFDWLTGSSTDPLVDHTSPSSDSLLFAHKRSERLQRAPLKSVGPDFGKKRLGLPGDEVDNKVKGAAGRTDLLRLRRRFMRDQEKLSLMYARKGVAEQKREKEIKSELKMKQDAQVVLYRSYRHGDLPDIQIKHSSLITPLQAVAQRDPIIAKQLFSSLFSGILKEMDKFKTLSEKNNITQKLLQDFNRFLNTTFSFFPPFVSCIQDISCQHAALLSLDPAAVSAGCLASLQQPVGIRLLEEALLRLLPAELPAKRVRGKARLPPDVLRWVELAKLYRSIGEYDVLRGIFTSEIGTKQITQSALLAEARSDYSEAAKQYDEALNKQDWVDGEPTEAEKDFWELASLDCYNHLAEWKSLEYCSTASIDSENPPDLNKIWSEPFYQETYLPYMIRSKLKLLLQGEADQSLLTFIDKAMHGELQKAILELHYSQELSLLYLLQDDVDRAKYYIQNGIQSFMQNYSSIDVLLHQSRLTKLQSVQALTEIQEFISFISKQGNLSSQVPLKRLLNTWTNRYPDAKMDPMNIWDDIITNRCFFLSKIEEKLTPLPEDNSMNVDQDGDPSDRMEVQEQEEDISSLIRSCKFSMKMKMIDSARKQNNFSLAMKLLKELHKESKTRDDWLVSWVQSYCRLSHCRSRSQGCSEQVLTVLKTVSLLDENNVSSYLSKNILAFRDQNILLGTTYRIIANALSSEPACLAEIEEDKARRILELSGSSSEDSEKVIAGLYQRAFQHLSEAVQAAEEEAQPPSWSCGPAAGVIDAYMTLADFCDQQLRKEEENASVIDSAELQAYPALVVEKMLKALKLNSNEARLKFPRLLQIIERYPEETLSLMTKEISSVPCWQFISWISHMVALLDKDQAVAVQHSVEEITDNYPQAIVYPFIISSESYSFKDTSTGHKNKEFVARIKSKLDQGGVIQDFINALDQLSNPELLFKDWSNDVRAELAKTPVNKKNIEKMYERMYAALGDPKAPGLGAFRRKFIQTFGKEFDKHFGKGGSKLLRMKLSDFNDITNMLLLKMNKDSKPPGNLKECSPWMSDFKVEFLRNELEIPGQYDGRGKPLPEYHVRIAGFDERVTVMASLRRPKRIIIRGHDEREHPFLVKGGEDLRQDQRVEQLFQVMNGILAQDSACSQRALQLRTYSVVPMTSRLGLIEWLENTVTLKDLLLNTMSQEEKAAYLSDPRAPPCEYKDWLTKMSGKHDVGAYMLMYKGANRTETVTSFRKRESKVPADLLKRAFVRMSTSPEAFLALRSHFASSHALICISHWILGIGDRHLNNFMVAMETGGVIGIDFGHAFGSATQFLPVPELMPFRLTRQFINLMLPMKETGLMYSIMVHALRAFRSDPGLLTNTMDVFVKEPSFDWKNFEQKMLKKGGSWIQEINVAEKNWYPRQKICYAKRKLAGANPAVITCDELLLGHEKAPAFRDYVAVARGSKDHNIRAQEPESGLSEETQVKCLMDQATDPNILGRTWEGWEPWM

target: DNA-PK (Homo sapiens, UniProt P78527); assay: DNA-PK inhibition assay (radiometric, 33P-ATP); assay type: biochemical; details: 100 μM ATP, competitive tight-binding fit
Description: Compounds were screened for their ability to inhibit DNA-PK kinase using a standard radiometric assay. Briefly, in this kinase assay the transfer of the terminal ^33P-phosphate in ^33P-ATP to a peptide substrate is interrogated. The assay was carried out in 384-well plates to a final volume of 50 μL per well containing approximately 6 nM DNA-PK, 50 mM HEPES (pH 7.5), 10 mM MgCl2, 25 mM NaCl, 0.01% BSA, 1 mM DTT, 10 μg/mL sheared double-stranded DNA (obtained from Sigma), 0.8 mg/mL DNA-PK peptide ([…] obtained from American Peptide), and 100 μM ATP. Accordingly, compounds of the invention were dissolved in DMSO to make 10 mM initial stock solutions. Serial dilutions in DMSO were then made to obtain the final solutions for the assay. A 0.75 μL aliquot of DMSO or inhibitor in DMSO was added to each well, followed by the addition of ATP substrate solution containing ^33P-ATP (obtained from Perkin Elmer). The reaction was started by the addition of DNA-PK, peptide and ds-DNA. After 45 min, the reaction was quenched with 25 μL of 5% phosphoric acid. The reaction mixture was transferred to MultiScreen HTS 384-well PH plates (obtained from Millipore), allowed to bind for one hour, and washed three times with 1% phosphoric acid. Following the addition of 50 μL of Ultima Gold™ high efficiency scintillant (obtained from Perkin Elmer), the samples were counted in a Packard TopCount NXT Microplate Scintillation and Luminescence Counter (Packard BioScience). The Ki values were calculated using Microsoft Excel Solver macros to fit the data to the kinetic model for competitive tight-binding inhibition.

`Cc1ccc(-c2cc(NCC(C)c3ccnc4c3OCC4)ncn2)cn1` (stereo not drawn) [Compound 418] and `C[C@H](CNc1cc(-c2ccc(N)nc2)ncn1)c1ccnc2c1OCC2` [Compound 594] cannot be ordered by Ki: less than 30 nM for the first, no more than 300 nM for the second.

`CNCCNc1ccc(-c2cc(NC[C@@H](C)c3ccnc4cccnc34)ncn2)cn1` [Compound 500] and `CNC(=O)c1ccnc2c([C@H](C)CNc3cc(-c4cnn(C)c4)ncn3)cccc12` [Compound 798] cannot be ordered by Ki: no more than 300 nM for the first, less than 30 nM for the second.

`COc1ccccc1[C@H](C)CNc1cc(-c2cnc3c(ccn3C)c2)ncn1` [Compound 173] and `COc1ccccc1[C@H](C)CNc1cc(-c2cnc3c(cnn3CC(O)CO)c2)ncn1` (single isomer, unassigned) [Compound 149] cannot be ordered by Ki: no more than 300 nM for the first, no more than 300 nM for the second.

`CNC(=O)c1ccc(C(C)CNc2ncnc(-c3ccc(C)nc3)n2)c(OC)c1` (stereo not drawn) [Compound 380] and `CNC(=O)c1ccnc2c([C@H](C)CNc3cc(-c4ccc(C)nc4)ncn3)cc(F)c(F)c12` [Compound 639] cannot be ordered by Ki: no more than 300 nM for the first, less than 30 nM for the second.

`CCOc1ccccc1CCNc1cc(-c2ccc(F)nc2)ncn1` [Compound 93] and `CNc1ccccc1[C@H](C)CNc1cc(-c2ccc(C(=O)NCCC#N)nc2)ncn1` [Compound 408] cannot be ordered by Ki: no more than 300 nM for the first, no more than 300 nM for the second.

`CCNC(=O)Cn1ncc2cc(-c3cc(NC[C@@H](C)c4ccccc4OC)ncn3)cnc21` [Compound 147] and `C[C@H](CNc1cc(-c2cnc3c(cnn3C3CNC3)c2)ncn1)c1ccnc2c1OCCO2` [Compound 527] cannot be ordered by Ki: no more than 300 nM for the first, no more than 300 nM for the second.
